Among all 390,000 compounds or so, about 610 (0.16%) were called active. Inconclusive results, whose numbers are uncertain, are shown with a selection of clear calls. Calls follow the shape of the dose curve; as a rule, active = well fitted inhibition curve with a large enough effect; inconclusive = small, poorly fitted or top-dose-only effect, or effect the other way, or another doubt; inactive = no such curve, though single readings can be large or run the other way. Potencies beside an inconclusive call are fits to weak or partial responses and may not hold up.
assay: Nrf2 qHTS screen for inhibitors: counterscreen for cytotoxicity; conditions: A549 ARE-Fluc cells, CellTiter-Fluor viability, 18-24 h; activity change, negative = cytotoxicity: at 46 µM (top of the series)
Procedure, shortened: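 Cytotoxicity counterscreen: CellTiter-Fluor fluorescence was measured in A549 ARE_Fluc cells after 18-24 h of compound exposure in a concentration series. The subsequent BugLite luminescent read reports ARE-luciferase activity.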
% is scaled to controls: 0 for no effect and ±100 for the full control effect; potency is read from the fitted curve at half-maximal effect.

Row | SMILES | Potency | activity change, negative = cytotoxicity
1 | CC(C)N1CCc2c(sc(NC(=O)c3ccc(S(=O)(=O)N4CCc5ccccc54)cc3)c2C(N)=O)C1 | inconclusive: 32.6 µM [falling, single point] | 
2 | COc1ccccc1CNC(=O)CCC1N=C2c3ccccc3N=C(SCc3ccc(C)cc3)N2C1=O (configuration not stated) |  | inactive: -19.8%
3 | CC1Cc2cc(S(=O)(=O)NCCc3ccccc3)ccc2N1C(=O)C1CCC1 (configuration not stated) |  | inactive: 12.8%
4 | Cc1cc(C)c2[nH]c(=O)c(CN(CC3CCCO3)C(=S)NCc3ccco3)cc2c1 (configuration not stated) |  | inactive: -0.826%
5 | CCC(C)Cn1cnc2c(Sc3c([N+](=O)[O-])ncn3C)nc(N)nc21 (configuration not stated) |  | inactive: -9.6%
6 | Clc1cccc(Cl)c1/C=N/Nc1c(Cl)cncc1Cl |  | inactive: 0.54%
7 | CN(CC(=O)Nc1ccc(Cl)c(C(F)(F)F)c1)C(=O)C1CCN(C(=O)c2ccc(Cl)cc2)CC1 | inconclusive: 23.1 µM [falling, single point] | 
8 | Cc1ccccc1N=C1NN=C(c2ccccc2F)CS1 | inconclusive: 29.1 µM [falling, single point] | 
9 | Cc1cc(N2C(=O)C(O)=C(C(=O)c3ccc(C)o3)C2c2cccc(Oc3ccccc3)c2)no1 (configuration not stated) | inconclusive: 23.1 µM [falling, partial curve, poor fit] | 
10 | C/C(=C/c1oc2ccc(O)cc2c1[N+](=O)[O-])N(C)C | inconclusive: 20.6 µM [falling, single point] | 
11 | COc1ccccc1C(=O)Nc1ccc2c(c1)CCCN2C(=O)c1cccs1 |  | inactive: 5.5%
12 | Cc1ccc(-c2csc(NCCc3nc4cc(Cl)c(Cl)cc4n3CCOCCO)n2)cc1 | inconclusive: 16.4 µM [falling, partial curve, poor fit] | 
13 | O=C(Nc1ccc2nc3n(c(=O)c2c1)CCCCC3)C(=O)N1CCN(c2ccccc2F)CC1 |  | inactive: 2.57%
14 | Cc1ccc(/C=C2/SC(=S)N(CCC(=O)NCCCN3CCOCC3)C2=O)cc1 | active: 14.6 µM | 
15 | Cc1ccc(C)c(CN2C(=O)c3ccccc3S(=O)(=O)c3ccc(C(=O)N4CCCCC4)cc32)c1 | inconclusive: 14.6 µM [falling, partial curve, poor fit] | 
16 | O=C(CCN1C(=O)/C(=C/c2ccccc2F)SC1=S)NCCc1ccc(O)cc1 | inconclusive: 29.1 µM [falling, single point] | 
17 | CC(C)CC(=O)Nc1c(C(=O)N2CCN(c3ccccc3)CC2)oc2ccccc12 |  | inactive: 3.06%
18 | C[C@H]1CN([C@@H](C)CO)C(=O)c2cccc(NC(=O)Nc3ccc(C(F)(F)F)cc3)c2O[C@@H]1CN(C)C(=O)Nc1ccc(F)cc1 | inconclusive: 29.1 µM [falling, single point] | 
19 | C=CCN=c1scc(-c2ccc3c(c2)NC(=O)CO3)n1/N=C(\C)c1ccccn1 | inconclusive: 23.1 µM [falling, single point] | 
20 | COC(=O)c1ccccc1NC(=O)N1CCc2c(sc3c2CCCC3)C1c1ccc(F)cc1 (configuration not stated) | inconclusive: 5.8 µM [activator, full curve, poor fit] | 
21 | O=C(Cn1c(=O)n(CC2CCC(C(=O)NCCc3ccccc3)CC2)c(=O)c2ccccc21)Nc1cccc(F)c1 (configuration not stated) |  | inactive: 2.64%

Row | SMILES | Potency | activity change, negative = cytotoxicity
22 | O=C(Nc1ccc(C(=O)N2CCCCC2)cc1)Nc1cccc(Cl)c1 | inconclusive: 23.1 µM [falling, partial curve, poor fit] | 
23 | O=C(CSc1nc(Cc2ccccc2)nc2ccccc12)Nc1ccc2c(c1)OCCO2 | inconclusive: 20.6 µM [falling, partial curve, poor fit] | 
24 | O=C(Nc1ccccc1Oc1ccccc1)c1cnccn1 | inconclusive: 3.26 µM [activator, partial curve, poor fit] | 
25 | Cc1ccc(NC(=O)[C@@H](c2ccccc2)N2Cc3ccccc3C2=O)cc1 |  | inactive: -16.2%
26 | O=C(CNc1ccccc1)N/N=C/c1ccc([N+](=O)[O-])o1 | inconclusive: 23.1 µM [falling, partial curve, poor fit] | 
27 | Cc1ccc2[nH]c(CSc3nnc(NC(=O)c4ccc(Cl)cc4)s3)cc(=O)c2c1 |  | inactive: -3.26%
28 | CCc1c(C)nc2cc(-c3ccc(OC)c(OC)c3)nn2c1NCC1CC1 | inconclusive: 18.4 µM [falling, single point] | 
29 | O=C(NCc1csc(-c2cccs2)n1)Nc1ccc(F)cc1F | inconclusive: 23.1 µM [activator, partial curve] | 
30 | COC(=O)c1nc(-c2ccc(C)cc2)oc1N(C)C |  | inactive: 6.59%
31 | COc1cc(CNC2CCCCCC2)cc(OC)c1OC | inconclusive: 25.9 µM [activator, partial curve, poor fit] | 
32 | CC1C(c2ccccc2)N(C)C(c2ccccc2)CC1(O)c1ccccc1 (configuration not stated) | inconclusive: 23.1 µM [falling, single point] | 
33 | CC(=O)c1cccc(NC(=S)NC(=O)c2cccc(C)c2)c1 |  | inactive: 4.77%
34 | Cc1ccc(Cl)cc1NC(=O)C(Cc1ccccc1)N1C(=O)C2C3CCC(C3)C2C1=O (configuration not stated) | inconclusive: 32.6 µM [falling, partial curve, poor fit] | 
35 | COc1ccc(S(=O)(=O)N(CCc2ccccc2)CC(=O)NCCCO)cc1 | inconclusive: 29.1 µM [falling, single point] | 
36 | CCOc1ccccc1NC(=O)CCn1nc(C)c(S(=O)(=O)N2CCCCC2)c1C | inconclusive: 6.51 µM [falling, single point] | 
37 | Cc1cc(NC(=O)COC(=O)c2cc([N+](=O)[O-])ccc2N2CCOCC2)ccc1Br | inconclusive: 23.1 µM [falling, single point] | 
38 | CC(=O)Nc1sc(/C(C#N)=C/c2ccc(Cl)c(Cl)c2)nc1-c1ccc(C)cc1 | inconclusive: 9.2 µM [activator, partial curve] | 
39 | CCc1nc(NCc2ccc3c(c2)OCO3)c2oc3ccccc3c2n1 | inconclusive: 0.58 µM [falling, partial curve, poor fit] | 
40 | O=S(=O)(Nc1cccc(-c2ccc(N3CCCCCC3)nn2)c1)c1cccc(F)c1 | inconclusive: 29.1 µM [falling, single point] | 
41 | COc1ccc(N2CCN(C(=O)Cc3ccc(-n4c(=O)[nH]c5ccccc5c4=O)cc3)CC2)cc1 |  | inactive: 3.74%
42 | C=CCSc1nnc(NC(=O)c2ccc(NC(C)=O)cc2)s1 | inconclusive: 29.1 µM [falling, single point] | 

Not a retest: an excerpt of the list.
Row | SMILES | Potency | activity change, negative = cytotoxicity
25 | Cc1ccc(NC(=O)[C@@H](c2ccccc2)N2Cc3ccccc3C2=O)cc1 |  | inactive: -16.2%
26 | O=C(CNc1ccccc1)N/N=C/c1ccc([N+](=O)[O-])o1 | inconclusive: 23.1 µM [falling, partial curve, poor fit] | 
27 | Cc1ccc2[nH]c(CSc3nnc(NC(=O)c4ccc(Cl)cc4)s3)cc(=O)c2c1 |  | inactive: -3.26%
28 | CCc1c(C)nc2cc(-c3ccc(OC)c(OC)c3)nn2c1NCC1CC1 | inconclusive: 18.4 µM [falling, single point] | 
29 | O=C(NCc1csc(-c2cccs2)n1)Nc1ccc(F)cc1F | inconclusive: 23.1 µM [activator, partial curve] | 
30 | COC(=O)c1nc(-c2ccc(C)cc2)oc1N(C)C |  | inactive: 6.59%
31 | COc1cc(CNC2CCCCCC2)cc(OC)c1OC | inconclusive: 25.9 µM [activator, partial curve, poor fit] | 
32 | CC1C(c2ccccc2)N(C)C(c2ccccc2)CC1(O)c1ccccc1 (configuration not stated) | inconclusive: 23.1 µM [falling, single point] | 

From PubChem BioAssay AID504648 (National Center for Advancing Translational Sciences (NCATS), 2011)
